Reference: PMC7862700
The list shows a part of the results, in another mix than the full data. For part of these data: At the low end of the ranking, values are background and their order means little. The list shows a part of the results. For part of these data: Construct or isoform of the protein are uncertain.

Assays:
Experiment in all cases: DAPPL (digital affinity profiling via proximity ligation, sequencing)
Settings in all cases: 10 mM Tris-HCl pH 7.5, 50 mM NaCl, 1 mM DTT, 4% glycerol, room temperature, 30 min; GST-TFs on glutathione beads, 16-mer random dsDNA library, 0.1% …; high values mean tight binding; double strand, one strand shown; scale: fold enrichment (6-mer frequency, TF over GST control)
GABPA = molecular target: T1, GABPA (UniProt Q06546)
T1 sequence: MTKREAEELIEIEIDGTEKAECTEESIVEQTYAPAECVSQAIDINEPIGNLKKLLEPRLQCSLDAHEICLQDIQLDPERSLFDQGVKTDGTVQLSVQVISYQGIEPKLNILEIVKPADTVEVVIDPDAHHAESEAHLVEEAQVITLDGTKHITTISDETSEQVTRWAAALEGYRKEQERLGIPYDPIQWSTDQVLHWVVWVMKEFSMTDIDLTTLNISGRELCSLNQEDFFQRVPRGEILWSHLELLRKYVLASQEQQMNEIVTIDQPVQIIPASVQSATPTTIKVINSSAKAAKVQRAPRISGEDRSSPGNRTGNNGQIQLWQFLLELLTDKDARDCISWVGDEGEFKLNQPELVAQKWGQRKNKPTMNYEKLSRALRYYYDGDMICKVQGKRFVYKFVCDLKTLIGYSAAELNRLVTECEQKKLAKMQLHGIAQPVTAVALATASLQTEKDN

ETS1 = molecular target: T2, ETS1 (UniProt P14921)
T2 sequence: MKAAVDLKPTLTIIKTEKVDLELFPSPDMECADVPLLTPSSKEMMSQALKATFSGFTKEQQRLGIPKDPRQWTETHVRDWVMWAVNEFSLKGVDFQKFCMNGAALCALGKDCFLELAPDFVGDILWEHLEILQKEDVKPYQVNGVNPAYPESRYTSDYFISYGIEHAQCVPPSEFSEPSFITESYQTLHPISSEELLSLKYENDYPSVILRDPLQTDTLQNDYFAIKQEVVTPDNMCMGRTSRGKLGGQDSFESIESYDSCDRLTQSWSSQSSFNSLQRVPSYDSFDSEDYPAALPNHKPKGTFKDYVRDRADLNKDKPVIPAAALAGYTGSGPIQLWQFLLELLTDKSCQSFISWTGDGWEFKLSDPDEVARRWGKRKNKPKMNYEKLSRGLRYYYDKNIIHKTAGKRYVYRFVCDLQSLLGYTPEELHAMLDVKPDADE

SPDEF = molecular target: T3, SPDEF (UniProt O95238)
T3 sequence: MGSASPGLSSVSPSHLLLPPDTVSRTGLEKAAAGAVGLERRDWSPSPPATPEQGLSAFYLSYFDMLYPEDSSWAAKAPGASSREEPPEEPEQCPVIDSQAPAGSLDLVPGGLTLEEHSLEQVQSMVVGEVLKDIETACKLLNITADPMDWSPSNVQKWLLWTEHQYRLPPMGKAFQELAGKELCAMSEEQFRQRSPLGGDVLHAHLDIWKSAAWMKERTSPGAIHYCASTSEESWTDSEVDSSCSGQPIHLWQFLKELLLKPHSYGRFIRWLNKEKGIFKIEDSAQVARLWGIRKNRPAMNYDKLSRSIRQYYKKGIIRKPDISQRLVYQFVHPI

Sequence	binding signal (GABPA)	binding signal (ETS1)	binding signal (SPDEF)
CCACGG	0.901	0.893	0.915
TAGGAC	0.872	0.842	0.856
GCAGAC	0.79	0.741	0.726
TGAGTC	0.202	0.183	0.211
GCACCG	0.689	0.698	0.715
CGGGCG	0.434	0.366	0.464
TAGACG	0.796	0.727	0.764
AAGCGT	0.878	0.887	0.829
GCAGGG	0.605	0.584	0.644
GAGCGC	0.654	0.643	0.548
GAACGA	0.72	0.76	0.679
CGCGTG	0.602	0.659	0.629
AAAGGA	0.876	0.818	0.916
GCCCGT	0.721	0.67	0.652
CGGACG	0.388	0.436	0.527
AGAGGG	0.694	0.703	0.71
GCGTAA	0.879	0.857	0.81
AGAGGT	0.827	0.782	0.898
GTCGAT	0.744	0.656	0.756
ACTGTG	0.493	0.501	0.504
GTGTGC	0.849	0.832	0.749
GTATAG	0.866	0.911	0.823
CATAGG	0.728	0.708	0.747
TCGGAA	0.527	0.506	0.503
GGGGTT	0.789	0.801	0.798
GACTGA	0.811	0.813	0.84
GGGATG	0.935	0.926	0.993
GGGCCA	0.735	0.696	0.672
GCGAGC	0.945	0.81	0.849
CGGGGT	0.632	0.598	0.656

For reference, some entries already given:
Sequence	binding signal (GABPA)	binding signal (ETS1)	binding signal (SPDEF)
AGAGGG	0.694	0.703	0.71
GCGTAA	0.879	0.857	0.81
AGAGGT	0.827	0.782	0.898
GTCGAT	0.744	0.656	0.756
ACTGTG	0.493	0.501	0.504
GTGTGC	0.849	0.832	0.749
